Test results from patent publication EP2039683B1, “Vasculostatic agents and methods of use thereof” (Targegen, Inc., priority 2002, dated 2004).
At least one read-out could not be matched to a standard name with certainty.

System: VEGF-induced edema
Test: Miles assay, VEGF as agonist
Assay type: in vivo, Sprague-Dawley rats
Settings: VEGF 200 ng/injection site, vehicle 12
Procedure: A rodent model of vascular edema, the Miles assay, was used to screen compounds for their ability to inhibit VEGF-induced edema. […] Sprague-Dawley rats were first injected IV with vehicle alone or test agent, followed by IV injection of Evans blue dye, followed by intradermal injections of saline and VEGF (200 ng/injection site) along both shaved flanks. […] The ability of test agent to influence vascular edema was tested as above, except that the ability to block edema was tested using either VEGF or histamine as the agonist (200 ng and 10 µg/injection site, respectively).

Cl.Nc1ncnc2nc(-c3ccc(O)c(O)c3)c(-c3ccc(O)c(O)c3)nc12 [4-[4-amino-6-(3,4-dihydroxyphenyl)pteridin-7-yl]benzene-1,2-diol chloride salt]
Score (scale of 0-12) (0.01 mg/kg IV): 6
Score (scale of 0-12) (0.1 mg/kg IV): 3
Score (scale of 0-12) (1 mg/kg IV): 5
